PubChem BioAssay AID652259, Drosophila RNAi Screening Center | 2013
The screen tested about 22,000 reagents; shown is an unselected part of those that have a named target and a result. Over the whole deposit, 233 (1.1%) are marked active. 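Light values are raw, unnormalised plate reads; the ratio scores behind the reporter calls were not deposited.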 The numbers tell different reagents against one gene apart. A plus sign joins genes that one reagent is predicted to hit. The record does not give: the amount of reagent, the time to read-out, the dose of the treatment.

- Aim: 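Identify new Wingless signalling regulators in fly cells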 (primary screen)
- System: Drosophila clone 8 imaginal disc epithelial cells
- Knock-down reagent: long dsRNA against Drosophila genes
- Challenge: pathway stimulated by co-transfected Wingless expression plasmid
- Measured: 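Dual luciferase reads per well after Wingless plasmid stimulation: reporter firefly light and Renilla control light; activity is firefly divided by Renilla, a ratio not deposited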
- Direction: firefly reporter light: higher = more Wg reporter light, before normalisation; Renilla control light: higher = more transfected or surviving cells
- Hit rule: 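Strong candidates differ from their plate mean by at least two out of four per-plate statistical tests; weak candidates meet just one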
- Meaning of the calls: active = candidate regulator (raises or lowers reporter); inactive = not a candidate

| Gene | reagent no. | reporter change call, replicate 1 | firefly reporter light, replicate 1 | firefly reporter light, replicate 2 | Renilla control light, replicate 1 | Renilla control light, replicate 2 | Call |
| --- | --- | --- | --- | --- | --- | --- | --- |
| CG17380 | 1 | – | 17776 | – | 14390 | – | inactive |
| Oga | 1 | – | 2562 | 5292 | 1133 | 1548 | inactive |
| CG34161 | 1 | – | 25319 | – | 7634 | – | inactive |
| CG32652 (retired record) | 1 | – | 4725 | – | 1597 | – | inactive |
| CG32652 (retired record) | 2 | – | 6.23e5 | 7.06e5 | 3.06e5 | 3.87e5 | inactive |
| CG32246 | 1 | – | 1434 | – | 736 | – | inactive |
| CG2983 | 1 | – | 3264 | 11414 | 1190 | 3676 | inactive |
| CG14687 | 1 | – | 22217 | 9.04e5 | 5666 | 3.81e5 | inactive |
| mtSSB | 1 | – | 22322 | – | 5401 | – | inactive |
| CG8665 | 1 | – | 4016 | 11749 | 1072 | 4278 | inactive |
| VhaPPA1-1 | 1 | – | 7450 | – | 2694 | – | inactive |
| Ir94a | 1 | – | 2813 | – | 1481 | – | inactive |
| Sirt2 | 1 | – | 10400 | – | 3025 | – | inactive |
| CD98hc | 1 | – | 14816 | – | 4240 | – | inactive |
| pncr003:2L (retired record) | 1 | – | 1.02e6 | 9.49e5 | 2.90e5 | 3.05e5 | inactive |
| pins | 1 | – | 5299 | – | 2736 | – | inactive |
| Cdk1 | 1 | Wg reporter activity lowered | 4232 | – | 2076 | – | active |
| pigeon | 1 | – | 5737 | – | 1856 | – | inactive |
| Suv3 | 1 | – | 6816 | – | 2939 | – | inactive |
| CG13075 | 1 | – | 7820 | – | 3427 | – | inactive |
| TrpRS | 1 | – | 13035 | – | 3228 | – | inactive |
| CR43087 + CR43086 + CG34002 | 1 | – | 4339 | – | 2131 | – | inactive |
| CG10492 | 1 | – | 9737 | – | 483 | – | inactive |
| CG9331 | 1 | – | 15280 | – | 5052 | – | inactive |
| CG14739 | 1 | – | 20612 | – | 6342 | – | inactive |
| Or2a | 1 | – | 14256 | – | 9057 | – | inactive |
| CG33303 | 1 | – | 1865 | 6755 | 697 | 3394 | inactive |
| Su(z)3 (retired record) | 1 | – | 3987 | – | 310 | – | inactive |
| Atg3 | 1 | – | 7744 | – | 3978 | – | inactive |
| Atg3 | 2 | – | 5.99e5 | 7.06e5 | 3.89e5 | 2.97e5 | inactive |
| pod1 | 1 | – | 3483 | 11588 | 480 | 1671 | inactive |
| CG4069 | 1 | – | 4901 | – | 1672 | – | inactive |
| brm | 1 | – | 11120 | – | 2000 | – | inactive |
| Dlip2 | 1 | – | 20593 | – | 6801 | – | inactive |
| Yp2 | 1 | – | 2551 | 4395 | 874 | 1808 | inactive |
| CLIP-190 | 1 | – | 20826 | – | 4819 | – | inactive |
| PAN2 | 1 | – | 9781 | – | 3948 | – | inactive |
| LSm3 | 1 | – | 31361 | – | 19092 | – | inactive |

The list goes on (7 carried over from the part before).
| Gene | reagent no. | reporter change call, replicate 1 | firefly reporter light, replicate 1 | firefly reporter light, replicate 2 | Renilla control light, replicate 1 | Renilla control light, replicate 2 | Call |
| --- | --- | --- | --- | --- | --- | --- | --- |
| CG4069 | 1 | – | 4901 | – | 1672 | – | inactive |
| brm | 1 | – | 11120 | – | 2000 | – | inactive |
| Dlip2 | 1 | – | 20593 | – | 6801 | – | inactive |
| Yp2 | 1 | – | 2551 | 4395 | 874 | 1808 | inactive |
| CLIP-190 | 1 | – | 20826 | – | 4819 | – | inactive |
| PAN2 | 1 | – | 9781 | – | 3948 | – | inactive |
| LSm3 | 1 | – | 31361 | – | 19092 | – | inactive |
| CG34040 | 1 | – | 14624 | – | 7367 | – | inactive |
| yellow-e3 | 1 | – | 10052 | – | 1834 | – | inactive |
| Polr3C | 1 | – | 5248 | – | 2512 | – | inactive |
| CG13720 | 1 | – | 912 | 4515 | 523 | 1216 | inactive |
| CG14538 (retired record) | 1 | – | 3285 | 7667 | 1325 | 4157 | inactive |
| Atg17 | 1 | – | 21233 | – | 4646 | – | inactive |
| CG43901 | 1 | – | 17361 | – | 7484 | – | inactive |
| CG43901 | 2 | – | 23737 | – | 4929 | – | inactive |
| CG43901 | 3 | – | 23824 | – | 10749 | – | inactive |
| CG43901 | 4 | – | 4.97e5 | 5.09e5 | 2.08e5 | 2.37e5 | inactive |
| CG4681 | 1 | – | 2577 | 6896 | 737 | 2112 | inactive |
| CecC | 1 | – | 6578 | – | 2938 | – | inactive |
| Mst98Cb | 1 | – | 10228 | – | 4684 | – | inactive |
| Mst98Cb | 2 | – | 7.57e5 | 6.77e5 | 2.74e5 | 9009 | inactive |
| mms4 | 1 | – | 2069 | 6448 | 661 | 3242 | inactive |
| CG9861 | 1 | – | 12016 | – | 4162 | – | inactive |
| CG15024 | 1 | – | 1847 | 12498 | 1376 | 4068 | inactive |
| Boot | 1 | – | 2006 | 5308 | 736 | 2508 | inactive |
| mat | 1 | – | 9045 | – | 4928 | – | inactive |
| mat | 2 | – | 4.74e5 | 4.98e5 | 2.07e5 | 1.54e5 | inactive |
| CG1545 | 1 | – | 3.69e5 | 3.97e5 | 1.75e5 | 1.62e5 | inactive |
| CG34375 | 1 | – | 22233 | – | 17291 | – | inactive |
| CG34375 | 2 | – | 26832 | – | 12745 | – | inactive |
| nocte | 1 | Wg reporter activity raised | 20138 | 29979 | 827 | 1686 | active |
| CG12948 | 1 | – | 14320 | – | 3952 | – | inactive |
| GlcT | 1 | – | 9574 | – | 2856 | – | inactive |
| vrs | 1 | – | 19128 | – | 4086 | – | inactive |
| Ms | 1 | – | 3712 | 7212 | 1505 | 2066 | inactive |
| CG12691 | 1 | – | 19872 | – | 7507 | – | inactive |
| cav | 1 | – | 2419 | 3536 | 1282 | 1434 | inactive |
| CG42505 + CG42504 + CG31358 | 1 | – | 8217 | – | 2616 | – | inactive |
| CG42505 + CG42504 + CG31358 | 2 | – | 3505 | – | 1603 | – | inactive |
| CG42505 + CG42504 + CG31358 | 3 | – | 25533 | – | 6545 | – | inactive |
| CG31805 | 1 | – | 22688 | – | 10012 | – | inactive |
| CG14565 | 1 | – | 18003 | – | 6172 | – | inactive |
